Results are given in words; binding and its absence hold for the method and conditions named. For part of these data: In cells and extracts the contact can be indirect. Some entries that bind do so weakly or less than the wild type. For part of these data: Sequences can lack the tags named with a protein.
What was measured:
His6-YFP-SH2 [1] = biological target: T1, His6-YFP-SH2 (human, UniProt P00519 112-232); experiment: pull-down on Co2+ agarose beads with His6-YFP-SH2, crude chimera lysate, light or dark, imidazole elution, SDS-PAGE
T1 construct: domain: SH2 domain; also called 6xHis-YFP-protein fusion
T1 sequence (looked up): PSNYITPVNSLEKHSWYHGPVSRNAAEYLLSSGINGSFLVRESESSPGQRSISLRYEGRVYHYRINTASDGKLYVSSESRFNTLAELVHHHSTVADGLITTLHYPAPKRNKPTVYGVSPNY

His6-YFP-SH2 [2] = biological target: T1, His6-YFP-SH2; experiment: pull-down on His6-YFP-SH2 cobalt beads, SDS-PAGE
His6-YFP-SH2 [3] = biological target: T1, His6-YFP-SH2; experiment: pull-down on His6-YFP-SH2 cobalt beads; binds preferentially in the dark
His6-YFP-SH2 [4] = biological target: T1, His6-YFP-SH2; experiment: pull-down on immobilized 6xHis-YFP target, SDS-PAGE gel
SH3 = experiment: pull-down on cobalt beads with the immobilized bait (band labelled SH3), light (L) or dark (D), imidazole elution, SDS-PAGE
YFP-SH2 [5] = biological target: T2, YFP-SH2 (human, UniProt P00519 112-232); experiment: bio-layer interferometry, His-tagged binder on Ni-NTA sensors, YFP-SH2 as ligand, dark conformation
T2 construct: domain: SH2 domain; also called SH2-tagged YFP; EZ-L703
T2 sequence (looked up): T1 sequence (looked up)

YFP-SH2 [6] = biological target: T2, YFP-SH2; experiment: bio-layer interferometry, His-tagged OptoMB on Ni-NTA sensors, YFP-SH2 as ligand
YFP-SH2 [7] = biological target: T2, YFP-SH2; experiment: bio-layer interferometry, His-tagged binder on Ni-NTA sensors, YFP-SH2 as ligand, dark conformation (450 nm light, Supplementary Table 2)

Measured: binding

B1: HA4-AsLOV2 chimera, SS30 insertion (designed binder)
chain: GSSVSSVPTKLEVVAATPTSLLISWDAPMSGLERIEKNFVITDPRLPDNPIIFASDSFLQLTEYSREEILGRNCRFLQGPETDRATVRKIRDAIDNQTEVTVQLINYTKSGKKFWNLFHLQPMRDQKGDVQYFIGVQLDGTEHVRDAAEREGVMLIKKTAENIDEAAGSSSVYYYRITYGETGGNSPVQEFTVPYSSSTATISGLSPGVDYTITVYAWGEDSAGYMFMYSPISINYRTC
binds: His6-YFP-SH2 [1] | His6-YFP-SH2 [2]

B2: HA4-AsLOV2 chimera, SS58 insertion, untagged (OptoMB) (designed binder)
chain: GSSVSSVPTKLEVVAATPTSLLISWDAPMSSSSVYYYRITYGETGGNSPVQEFTVPYSGLERIEKNFVITDPRLPDNPIIFASDSFLQLTEYSREEILGRNCRFLQGPETDRATVRKIRDAIDNQTEVTVQLINYTKSGKKFWNLFHLQPMRDQKGDVQYFIGVQLDGTEHVRDAAEREGVMLIKKTAENIDEAAGSSTATISGLSPGVDYTITVYAWGEDSAGYMFMYSPISINYRTC
notes: Used as crude E. coli extract in the pull-down screen; also called alphaSH2 OptoMonobody; EZ-L706
binds: His6-YFP-SH2 [1] | His6-YFP-SH2 [3] | His6-YFP-SH2 [4] | SH3 | His6-YFP-SH2 [2]

B3: HA4-AsLOV2 chimera, SS59 insertion (designed binder)
chain: GSSVSSVPTKLEVVAATPTSLLISWDAPMSSSSVYYYRITYGETGGNSPVQEFTVPYSSGLERIEKNFVITDPRLPDNPIIFASDSFLQLTEYSREEILGRNCRFLQGPETDRATVRKIRDAIDNQTEVTVQLINYTKSGKKFWNLFHLQPMRDQKGDVQYFIGVQLDGTEHVRDAAEREGVMLIKKTAENIDEAAGSTATISGLSPGVDYTITVYAWGEDSAGYMFMYSPISINYRTC
binds: His6-YFP-SH2 [1] | His6-YFP-SH2 [2]

B4: OptoMBC450V (designed binder)
chain: HHHHHHSSGENLYFQGHASGSSVSSVPTKLEVVAATPTSLLISWDAPMSSSSVYYYRITYGETGGNSPVQEFTVPYSGLERIEKNFVITDPRLPDNPIIFASDSFLQLTEYSREEILGRNVRFLQGPETDRATVRKIRDAIDNQTEVTVQLINYTKSGKKFWNLFHLQPMRDQKGDVQYFIGVQLDGTEHVRDAAEREGVMLIKKTAENIDEAAGSSTATISGLSPGVDYTITVYAWGEDSAGYMFMYSPISINYRTC
notes: also called OptoMBC450V 1; OptoMBC450V 2
binds: YFP-SH2 [5] | YFP-SH2 [6] | YFP-SH2 [7]

B5: HA4-AsLOV2 chimera, MS29 insertion with residues 30-32 removed (designed binder)
chain: GSSVSSVPTKLEVVAATPTSLLISWDAPMGLERIEKNFVITDPRLPDNPIIFASDSFLQLTEYSREEILGRNCRFLQGPETDRATVRKIRDAIDNQTEVTVQLINYTKSGKKFWNLFHLQPMRDQKGDVQYFIGVQLDGTEHVRDAAEREGVMLIKKTAENIDEAAGSVYYYRITYGETGGNSPVQEFTVPYSSSTATISGLSPGVDYTITVYAWGEDSAGYMFMYSPISINYRTC
binds: His6-YFP-SH2 [1] | His6-YFP-SH2 [3] | His6-YFP-SH2 [2]

— patent US20200291075A1 (TRUSTEES OF PRINCETON UNIVERSITY, published 2020)
